Data from patent publication US20100273205A1, “Magnetic resonance imaging contrast agents” (priority 2005, published 2010).

Test system: formalin-fixed visual cortex (gray and white matter)
Assay: LFB relaxation enhancement, inversion-recovery spin-echo and multi-echo spin-echo MR at 14T
Parameters: species or system human
Protocol: Formalin-fixed samples of visual cortex, approximately 1 cm in thickness, were immersed in a mixture of LFB dissolved in a solvent of 95% ethanol (500 mg LFB in 50 ml ethanol) for durations between 48 hours and 3 months. Following LFB staining, the tissue was rinsed in 70% ethanol, rinsed in distilled water, and then immersed in an aqueous solution of lithium carbonate(Li2CO3) (0.25 g Li2CO3 in 500 mL water) until gray-white matter contrast had increased, ranging between approximately 5 minutes and 24 hours. Next, the tissue was rinsed twice more in 70% ethanol and lastly in distilled water. Additional control samples were prepared with 1) formalin only or 2) 95% ethanol followed by immersion in Li2CO3.
Tissue samples were blotted and then immersed in perfluoropolyether (Fomblin, Ausimont USA, Thorofare, N.J.) in a low-pressure environment. […] The low-pressure environment is used to remove artifact-inducing air bubbles from within the tissue.
Data was acquired using a 10 mm birdcage coil in a vertical bore 14T magnet (Magnex Scientific, Oxford, England), with an 89-mm bore and 100 G/cm gradient coil. An inversion-recovery prepared spin-echo sequence and a multi-echo spin-echo sequence were used to determine T1 and T2, respectively. Parameters were estimated in three regions of interest (ROIs), outer gray matter (GMo), inner gray matter (GMi), and white matter (WM), using a nonlinear least-squares fitting routine using the following equations, a:
SIIR−SE=Mo(1−2αe^−TIIT^1)SISE∝Moe^−TEIT^2
where α represents flip angle deviation from 180° and Mo is the equilibrium magnetization.

[1] = 14T, ex vivo visual cortex, non-linear least squares fit

Luxol fast blue [LFB]
penetration of dye into tissue (1 cm-thick slab of visual cortex, FIGS. 3A-C): penetrated deeply enough to change the relaxation times of the interior white matter | T1, longitudinal relaxation value of gray matter (GM) [1]: 519.5 ms | T1, longitudinal relaxation value of white matter (WM) [1]: 297.7 ms
